Measured values from the supplement of paper PMC10849652.
The list shows a part of the results.

By UniProt entry, the sequences of proteins in these tests, tags left out. Where a name states a change or a piece, a line headed by the entry shows the natural chain unless it says otherwise.
UniProt Q8IXQ4: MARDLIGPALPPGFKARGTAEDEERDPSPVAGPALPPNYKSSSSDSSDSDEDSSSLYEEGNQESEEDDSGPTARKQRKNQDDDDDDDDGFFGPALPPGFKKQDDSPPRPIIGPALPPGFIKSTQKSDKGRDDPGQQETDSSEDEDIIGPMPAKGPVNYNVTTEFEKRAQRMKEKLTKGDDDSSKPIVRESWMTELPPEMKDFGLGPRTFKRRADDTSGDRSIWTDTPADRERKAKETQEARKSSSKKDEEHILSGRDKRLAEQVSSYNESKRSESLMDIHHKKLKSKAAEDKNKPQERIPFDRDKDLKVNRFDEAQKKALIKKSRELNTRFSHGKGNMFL
UniProt Q9Y3E0: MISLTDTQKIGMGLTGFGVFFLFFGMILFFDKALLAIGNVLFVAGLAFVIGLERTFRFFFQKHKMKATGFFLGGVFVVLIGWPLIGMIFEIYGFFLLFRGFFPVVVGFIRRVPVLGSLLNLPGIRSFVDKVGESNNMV
UniProt Q9NWU2, whole entry, looked up: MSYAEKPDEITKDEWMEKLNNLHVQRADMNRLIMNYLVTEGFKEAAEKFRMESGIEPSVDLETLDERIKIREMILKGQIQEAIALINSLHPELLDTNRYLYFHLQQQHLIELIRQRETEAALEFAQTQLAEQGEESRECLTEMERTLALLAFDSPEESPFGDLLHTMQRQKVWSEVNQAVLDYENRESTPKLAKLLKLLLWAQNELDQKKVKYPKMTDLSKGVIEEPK
UniProt Q9HC38: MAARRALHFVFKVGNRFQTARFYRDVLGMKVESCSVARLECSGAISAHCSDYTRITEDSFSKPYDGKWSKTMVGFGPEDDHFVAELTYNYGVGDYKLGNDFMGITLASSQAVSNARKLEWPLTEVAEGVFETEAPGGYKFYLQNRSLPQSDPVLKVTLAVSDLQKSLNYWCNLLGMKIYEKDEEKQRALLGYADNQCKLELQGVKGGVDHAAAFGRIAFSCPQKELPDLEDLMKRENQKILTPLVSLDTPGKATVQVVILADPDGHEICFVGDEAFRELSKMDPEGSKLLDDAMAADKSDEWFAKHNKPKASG
UniProt P32189: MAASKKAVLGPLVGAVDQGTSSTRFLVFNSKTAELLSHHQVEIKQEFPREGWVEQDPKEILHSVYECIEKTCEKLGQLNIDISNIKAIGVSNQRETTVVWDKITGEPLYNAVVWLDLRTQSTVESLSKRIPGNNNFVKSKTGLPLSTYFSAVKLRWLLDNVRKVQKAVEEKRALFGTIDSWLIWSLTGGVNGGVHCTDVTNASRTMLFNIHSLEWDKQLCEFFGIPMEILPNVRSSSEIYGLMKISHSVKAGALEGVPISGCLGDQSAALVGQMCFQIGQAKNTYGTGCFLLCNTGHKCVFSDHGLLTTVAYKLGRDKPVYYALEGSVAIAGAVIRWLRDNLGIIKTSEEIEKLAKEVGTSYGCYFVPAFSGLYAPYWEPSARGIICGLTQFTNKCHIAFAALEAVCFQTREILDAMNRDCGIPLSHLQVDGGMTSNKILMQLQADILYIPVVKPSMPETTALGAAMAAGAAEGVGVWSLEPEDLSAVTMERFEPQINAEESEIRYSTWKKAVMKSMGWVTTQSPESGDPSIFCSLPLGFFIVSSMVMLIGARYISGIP
UniProt Q8IW92: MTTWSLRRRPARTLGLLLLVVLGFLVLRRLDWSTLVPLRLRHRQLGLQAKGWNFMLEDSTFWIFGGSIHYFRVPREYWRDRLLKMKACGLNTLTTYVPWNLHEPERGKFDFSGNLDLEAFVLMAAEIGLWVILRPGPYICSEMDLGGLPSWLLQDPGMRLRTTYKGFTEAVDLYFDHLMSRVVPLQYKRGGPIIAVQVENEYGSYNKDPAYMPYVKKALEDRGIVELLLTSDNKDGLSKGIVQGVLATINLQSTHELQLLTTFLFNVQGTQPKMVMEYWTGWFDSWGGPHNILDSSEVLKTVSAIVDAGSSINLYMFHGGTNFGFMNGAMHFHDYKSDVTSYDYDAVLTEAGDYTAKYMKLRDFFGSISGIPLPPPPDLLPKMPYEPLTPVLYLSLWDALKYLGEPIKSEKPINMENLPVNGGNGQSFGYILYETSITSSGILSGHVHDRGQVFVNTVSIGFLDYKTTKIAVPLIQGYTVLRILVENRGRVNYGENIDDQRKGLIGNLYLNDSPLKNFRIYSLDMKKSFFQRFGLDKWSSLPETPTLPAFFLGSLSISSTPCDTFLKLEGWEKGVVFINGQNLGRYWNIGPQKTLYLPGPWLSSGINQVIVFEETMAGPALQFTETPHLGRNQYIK
UniProt O94925: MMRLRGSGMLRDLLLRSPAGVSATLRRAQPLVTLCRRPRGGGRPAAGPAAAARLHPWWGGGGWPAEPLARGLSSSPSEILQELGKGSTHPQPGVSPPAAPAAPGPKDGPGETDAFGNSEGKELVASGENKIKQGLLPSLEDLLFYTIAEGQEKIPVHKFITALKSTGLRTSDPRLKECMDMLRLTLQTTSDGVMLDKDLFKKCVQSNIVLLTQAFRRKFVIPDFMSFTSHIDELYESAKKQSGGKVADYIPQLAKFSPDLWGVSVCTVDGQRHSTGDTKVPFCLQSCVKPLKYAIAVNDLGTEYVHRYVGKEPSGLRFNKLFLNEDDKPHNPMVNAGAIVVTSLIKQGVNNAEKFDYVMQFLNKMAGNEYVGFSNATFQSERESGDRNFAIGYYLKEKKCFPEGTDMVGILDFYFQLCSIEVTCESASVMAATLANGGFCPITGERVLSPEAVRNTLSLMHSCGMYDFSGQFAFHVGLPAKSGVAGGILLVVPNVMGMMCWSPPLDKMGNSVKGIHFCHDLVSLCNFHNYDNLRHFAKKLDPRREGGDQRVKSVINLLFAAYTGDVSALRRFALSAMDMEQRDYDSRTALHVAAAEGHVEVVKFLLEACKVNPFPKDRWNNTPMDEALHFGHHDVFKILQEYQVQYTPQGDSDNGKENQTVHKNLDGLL
UniProt O15228: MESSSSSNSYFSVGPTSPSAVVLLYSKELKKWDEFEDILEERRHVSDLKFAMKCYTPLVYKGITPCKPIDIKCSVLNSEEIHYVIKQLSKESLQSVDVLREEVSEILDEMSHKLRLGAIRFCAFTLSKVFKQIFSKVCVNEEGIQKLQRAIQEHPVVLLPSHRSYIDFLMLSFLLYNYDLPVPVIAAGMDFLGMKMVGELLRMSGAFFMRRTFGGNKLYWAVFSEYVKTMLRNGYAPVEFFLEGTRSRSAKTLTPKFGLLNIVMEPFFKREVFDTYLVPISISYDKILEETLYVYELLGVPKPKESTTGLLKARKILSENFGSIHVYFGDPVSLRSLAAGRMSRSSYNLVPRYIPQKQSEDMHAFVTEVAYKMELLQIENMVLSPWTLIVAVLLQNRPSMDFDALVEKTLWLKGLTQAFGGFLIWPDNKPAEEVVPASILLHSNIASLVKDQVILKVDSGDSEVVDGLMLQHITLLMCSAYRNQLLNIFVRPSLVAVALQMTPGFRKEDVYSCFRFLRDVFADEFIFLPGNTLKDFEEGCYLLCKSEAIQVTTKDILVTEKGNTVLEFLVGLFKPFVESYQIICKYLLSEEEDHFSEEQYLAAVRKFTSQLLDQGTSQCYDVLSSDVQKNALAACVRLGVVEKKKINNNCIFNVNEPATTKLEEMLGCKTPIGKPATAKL
UniProt Q9NS18: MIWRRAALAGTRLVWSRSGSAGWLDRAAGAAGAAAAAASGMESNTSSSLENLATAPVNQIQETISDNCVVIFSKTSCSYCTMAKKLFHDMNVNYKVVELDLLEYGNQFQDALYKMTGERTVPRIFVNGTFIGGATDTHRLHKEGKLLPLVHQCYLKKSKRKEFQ
UniProt Q9BXV9: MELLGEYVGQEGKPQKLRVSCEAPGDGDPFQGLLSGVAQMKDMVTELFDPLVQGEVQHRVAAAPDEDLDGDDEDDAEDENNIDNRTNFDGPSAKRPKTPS
UniProt P16278: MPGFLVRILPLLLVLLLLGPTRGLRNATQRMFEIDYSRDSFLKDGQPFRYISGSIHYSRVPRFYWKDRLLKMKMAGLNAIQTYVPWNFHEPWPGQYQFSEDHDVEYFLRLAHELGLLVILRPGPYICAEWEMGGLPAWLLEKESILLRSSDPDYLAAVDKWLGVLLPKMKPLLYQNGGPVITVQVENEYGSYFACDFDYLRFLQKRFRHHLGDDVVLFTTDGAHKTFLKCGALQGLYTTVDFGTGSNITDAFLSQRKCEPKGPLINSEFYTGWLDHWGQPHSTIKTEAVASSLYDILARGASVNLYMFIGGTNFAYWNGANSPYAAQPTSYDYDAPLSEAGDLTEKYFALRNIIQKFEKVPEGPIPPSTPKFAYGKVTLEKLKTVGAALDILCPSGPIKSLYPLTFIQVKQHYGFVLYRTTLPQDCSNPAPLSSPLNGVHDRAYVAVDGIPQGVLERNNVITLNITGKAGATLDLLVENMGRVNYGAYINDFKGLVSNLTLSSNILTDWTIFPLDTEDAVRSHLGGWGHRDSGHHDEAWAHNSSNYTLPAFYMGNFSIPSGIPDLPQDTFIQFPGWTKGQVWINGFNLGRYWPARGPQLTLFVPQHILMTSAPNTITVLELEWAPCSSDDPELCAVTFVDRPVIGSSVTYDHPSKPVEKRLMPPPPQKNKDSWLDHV
UniProt Q92990: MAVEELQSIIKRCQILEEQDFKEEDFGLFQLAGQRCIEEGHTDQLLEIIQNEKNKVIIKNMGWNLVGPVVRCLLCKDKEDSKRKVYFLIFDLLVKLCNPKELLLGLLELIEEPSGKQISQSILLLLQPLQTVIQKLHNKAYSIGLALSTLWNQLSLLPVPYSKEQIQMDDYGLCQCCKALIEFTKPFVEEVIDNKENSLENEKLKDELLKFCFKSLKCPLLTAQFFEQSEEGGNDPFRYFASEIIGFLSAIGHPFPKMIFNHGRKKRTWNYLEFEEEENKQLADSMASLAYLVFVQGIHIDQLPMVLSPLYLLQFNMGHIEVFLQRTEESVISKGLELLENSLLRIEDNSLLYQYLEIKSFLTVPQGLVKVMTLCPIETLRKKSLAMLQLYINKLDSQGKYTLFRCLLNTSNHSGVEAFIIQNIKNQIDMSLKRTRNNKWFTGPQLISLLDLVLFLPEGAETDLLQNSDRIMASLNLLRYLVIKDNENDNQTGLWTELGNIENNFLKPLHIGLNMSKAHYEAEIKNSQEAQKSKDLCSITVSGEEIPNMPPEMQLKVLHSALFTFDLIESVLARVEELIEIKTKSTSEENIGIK
UniProt Q5VW38: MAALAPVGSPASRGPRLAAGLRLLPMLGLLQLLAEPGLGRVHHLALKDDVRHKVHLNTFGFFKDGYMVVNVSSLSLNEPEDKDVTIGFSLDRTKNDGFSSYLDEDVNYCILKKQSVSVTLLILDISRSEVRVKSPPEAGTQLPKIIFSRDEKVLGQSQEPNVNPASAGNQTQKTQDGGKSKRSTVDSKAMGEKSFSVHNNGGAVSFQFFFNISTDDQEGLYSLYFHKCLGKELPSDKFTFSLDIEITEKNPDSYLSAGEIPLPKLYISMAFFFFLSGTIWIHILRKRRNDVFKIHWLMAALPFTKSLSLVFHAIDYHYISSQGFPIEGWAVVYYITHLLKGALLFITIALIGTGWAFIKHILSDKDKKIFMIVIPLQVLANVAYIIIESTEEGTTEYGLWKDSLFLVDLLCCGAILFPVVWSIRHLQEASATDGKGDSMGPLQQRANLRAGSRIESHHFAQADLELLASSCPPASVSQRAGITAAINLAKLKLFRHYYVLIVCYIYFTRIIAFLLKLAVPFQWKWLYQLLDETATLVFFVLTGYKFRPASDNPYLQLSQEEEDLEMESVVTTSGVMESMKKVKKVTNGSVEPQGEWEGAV
UniProt Q86VQ1: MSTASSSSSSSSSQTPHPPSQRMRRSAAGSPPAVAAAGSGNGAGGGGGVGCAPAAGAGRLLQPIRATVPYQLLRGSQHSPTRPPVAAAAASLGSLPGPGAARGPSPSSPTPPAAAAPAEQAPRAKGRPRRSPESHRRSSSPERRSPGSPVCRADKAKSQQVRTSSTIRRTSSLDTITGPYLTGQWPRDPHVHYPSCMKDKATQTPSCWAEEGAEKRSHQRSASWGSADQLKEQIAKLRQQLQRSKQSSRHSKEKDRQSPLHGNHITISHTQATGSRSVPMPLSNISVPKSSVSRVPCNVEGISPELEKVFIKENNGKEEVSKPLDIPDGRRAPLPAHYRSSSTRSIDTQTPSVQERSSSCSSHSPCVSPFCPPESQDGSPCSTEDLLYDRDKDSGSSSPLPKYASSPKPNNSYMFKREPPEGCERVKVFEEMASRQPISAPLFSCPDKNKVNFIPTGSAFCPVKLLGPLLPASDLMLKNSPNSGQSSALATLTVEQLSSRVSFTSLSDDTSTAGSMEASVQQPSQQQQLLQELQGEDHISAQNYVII
UniProt Q8N335: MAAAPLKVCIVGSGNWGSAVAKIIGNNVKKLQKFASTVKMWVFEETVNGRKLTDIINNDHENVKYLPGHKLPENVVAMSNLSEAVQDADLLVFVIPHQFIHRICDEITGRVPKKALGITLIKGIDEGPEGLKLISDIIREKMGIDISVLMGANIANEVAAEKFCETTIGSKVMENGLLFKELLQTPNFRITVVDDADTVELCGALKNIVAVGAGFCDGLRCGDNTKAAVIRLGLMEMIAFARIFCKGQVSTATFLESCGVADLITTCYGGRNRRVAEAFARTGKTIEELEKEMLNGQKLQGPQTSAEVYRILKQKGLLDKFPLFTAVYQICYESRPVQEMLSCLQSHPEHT

Experiments:
Assay in all cases: log2 fold change, soluble protein after heating vs DMSO (PISA); higher = thermal stabilisation; K562 cells, 10 uM, 30 min; active = over 0.2 and 3.5 SD of the protein, either way, in both replicates (recomputed)
bafetinib = compound: Cc1ccc(NC(=O)c2ccc(CN3CC[C@H](N(C)C)C3)c(C(F)(F)F)c2)cc1Nc1nccc(-c2cncnc2)n1 [bafetinib]
How it was run: (§1)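 Quantification of soluble protein used TMTpro 16plex LC-MS/MS, with channel sums equalised. Samples were the supernatant after 21,000xg for 90 min of pooled aliquots from K562 cells (2×10^6 cells/mL) treated with 10 μM compound for 30 min, heated for 3 min over 48°C-58°C, and extracted in PBS with 0.5% NP-40 at 4°C. Values, from duplicates, describe thermal stability against control samples on a log2 fold-change scale.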

[1] = compound: Cc1cccc(CC(=O)N2CCc3c2ccc(-c2cn(C)c4ncnc(N)c24)c3F)n1
How it was run: as §1

nilotinib = compound: Cc1cn(-c2cc(NC(=O)c3ccc(C)c(Nc4nccc(-c5cccnc5)n4)c3)cc(C(F)(F)F)c2)cn1 [nilotinib]
How it was run: as §1

[2] = compound: Cc1nc(Nc2n[nH]c3c2CN(C(=O)N[C@H](CN(C)C)c2ccccc2)C3(C)C)c2sccc2n1
How it was run: as §1

dasatinib = compound: Cc1nc(Nc2ncc(C(=O)Nc3c(C)cccc3Cl)s2)cc(N2CCN(CCO)CC2)n1 [dasatinib]
How it was run: as §1

[3] = compound: Cc1ncc(-c2ccnc(Nc3ccc(S(C)(=O)=O)cc3)n2)n1C(C)C
How it was run: as §1

[4] = compound: Cn1cc(-c2ccc3c(c2)CCN3C(=O)Cc2cccc(C(F)(F)F)c2)c2c(N)ncnc21
How it was run: as §1

[5] = compound: Cn1cc(-c2ccc3nnc(C(F)(F)c4ccc5ncccc5c4)n3n2)cn1
How it was run: as §1

tipifarnib = compound: Cn1cncc1[C@@](N)(c1ccc(Cl)cc1)c1ccc2c(c1)c(-c1cccc(Cl)c1)cc(=O)n2C [tipifarnib]
How it was run: as §1

mubritinib = compound: FC(F)(F)c1ccc(/C=C/c2nc(COc3ccc(CCCCn4ccnn4)cc3)co2)cc1 [mubritinib]
How it was run: as §1

Measured: log2 fold change

GPRIN1 (UniProt Q7Z2K8)
inactive: bafetinib 0.059 | [1] -0.005 | nilotinib 0.093 | [2] -0.076 | dasatinib -0.001 | [3] 0.012 | [4] 0.087 | [5] 0.057 | tipifarnib 0.033 | mubritinib -0.002

GPALPP1 (UniProt Q8IXQ4)
inactive: bafetinib -0.056 | [1] -0.09 | nilotinib -0.003 | [2] 0.046 | dasatinib 0.03 | [3] -0.002 | [4] 0.019 | [5] 0.105 | tipifarnib 0.007 | mubritinib 0.003

GOLT1B (UniProt Q9Y3E0)
inactive: bafetinib -0.04 | [1] 0.033 | nilotinib -0.075 | [2] 0.065 | dasatinib 0.048 | [3] -0.013 | [4] 0.017 | [5] -0.08 | tipifarnib -0.061 | mubritinib 0.032

GOLGB1 isoform 2 (UniProt Q14789)
inactive: bafetinib -0.022 | [1] -0.03 | nilotinib -0.054 | [2] 0.018 | dasatinib 0.08 | [3] -0.078 | [4] -0.077 | [5] 0 | tipifarnib 0.014 | mubritinib 0.017

GID8 (UniProt Q9NWU2)
inactive: bafetinib -0.02 | [1] -0.028 | nilotinib 0.01 | [2] -0.028 | dasatinib -0.056 | [3] -0.016 | [4] 0.018 | [5] -0.001 | tipifarnib 0.047 | mubritinib -0.001

GLOD4 isoform 2 (UniProt Q9HC38)
inactive: bafetinib -0.041 | [1] 0.024 | nilotinib -0.011 | [2] -0.012 | dasatinib -0.091 | [3] 0.003 | [4] 0.059 | [5] 0.033 | tipifarnib -0.083 | mubritinib 0.065

GK (UniProt P32189)
inactive: bafetinib -0.066 | [1] -0.013 | nilotinib 0.011 | [2] 0.01 | dasatinib 0.046 | [3] -0.031 | [4] 0.031 | [5] 0.22 | tipifarnib 0.083 | mubritinib 0.048

GRIPAP1 (UniProt Q4V328)
inactive: bafetinib -0.04 | [1] -0.035 | nilotinib 0.136 | [2] -0.059 | dasatinib 0.046 | [3] 0.089 | [4] -0.128 | [5] -0.026 | tipifarnib 0.002 | mubritinib 0.037

GLB1L2 (UniProt Q8IW92)
inactive: bafetinib 0.02 | [1] -0.097 | nilotinib 0.008 | [2] 0.116 | dasatinib 0.104 | [3] -0.052 | [4] 0.047 | [5] 0.09 | tipifarnib 0.047 | mubritinib -0.005

GLS (UniProt O94925)
inactive: bafetinib -0.021 | [1] 0.025 | nilotinib -0.095 | [2] -0.069 | dasatinib -0.154 | [3] 0.009 | [4] -0.081 | [5] 0.003 | tipifarnib -0.071 | mubritinib -0.285

GRSF1 (UniProt Q12849)
inactive: bafetinib 0.048 | [1] 0.033 | nilotinib 0.014 | [2] -0.27 | dasatinib -0.156 | [3] 0.15 | [4] -0.084 | [5] -0.064 | tipifarnib -0.039 | mubritinib -0.258

GNPAT (UniProt O15228)
inactive: bafetinib -0.129 | [1] 0.045 | nilotinib -0.011 | [2] -0.008 | dasatinib 0.014 | [3] -0.028 | [4] 0.059 | [5] 0.005 | tipifarnib 0.031 | mubritinib 0.005

GNE isoform 2 (UniProt Q9Y223)
inactive: bafetinib 0.076 | [1] 0.039 | nilotinib 0.094 | [2] 0.069 | dasatinib -0.04 | [3] 0.058 | [4] 0.1 | [5] 0.004 | tipifarnib -0.115 | mubritinib 0.031

GPS1 isoform 7 (UniProt Q13098)
inactive: bafetinib -0.048 | [1] 0.026 | nilotinib -0.001 | [2] -0.001 | dasatinib 0.001 | [3] -0.005 | [4] 0.016 | [5] -0.003 | tipifarnib 0.007 | mubritinib 0.033

GLRX2 isoform 2 (UniProt Q9NS18)
inactive: bafetinib -0.026 | [1] -0.015 | nilotinib 0.171 | [2] 0.046 | dasatinib 0.045 | [3] 0.061 | [4] -0.002 | [5] -0.044 | tipifarnib 0.032 | mubritinib 0.091

GON7 (UniProt Q9BXV9)
inactive: bafetinib -0.041 | [1] -0.071 | nilotinib 0.029 | [2] -0.037 | dasatinib 0.067 | [3] -0.01 | [4] 0.01 | [5] 0.111 | tipifarnib 0.149 | mubritinib 0.068

GLB1 (UniProt P16278)
inactive: [1] -0.009 | nilotinib 0.013 | [2] 0.017 | dasatinib 0.061 | [3] 0.004 | [4] -0.006 | [5] 0.016 | tipifarnib 0.039 | mubritinib -0.009
active: bafetinib -0.418

GLMN (UniProt Q92990)
inactive: bafetinib -0.022 | [1] -0.007 | nilotinib -0.033 | [2] -0.005 | dasatinib -0.03 | [3] -0.006 | [4] 0.053 | [5] 0.023 | tipifarnib -0.043 | mubritinib 0.084

GPR107 (UniProt Q5VW38)
inactive: bafetinib -0.075 | [1] -0.059 | nilotinib 0.05 | [2] 0.029 | dasatinib 0.032 | [3] 0.017 | [4] 0.05 | [5] 0.015 | tipifarnib 0.029 | mubritinib -0.054

GLS isoform 3 (UniProt O94925)
inactive: bafetinib 0.045 | [1] 0.028 | nilotinib -0.238 | [2] -0.162 | dasatinib -0.282 | [3] 0.046 | [4] -0.097 | [5] 0.114 | tipifarnib -0.208
active: mubritinib -0.492

GJA1 (UniProt P17302)
inactive: bafetinib -0.136 | [1] 0.234

GLCCI1 (UniProt Q86VQ1)
inactive: bafetinib -0.074 | [1] 0.037 | nilotinib 0.073 | [2] -0.103 | dasatinib -0.066 | [3] -0.094 | [4] 0.03 | [5] -0.175 | tipifarnib 0.075 | mubritinib 0.011

GORASP2 isoform 3 (UniProt Q9H8Y8)
inactive: bafetinib 0.094 | [1] 0.018 | nilotinib -0.15 | [2] -0.161 | dasatinib -0.204 | [3] 0.07 | [4] 0.006 | [5] -0.116 | tipifarnib -0.053 | mubritinib -0.002

Retrieved one by one from the list above, 2 records:
GLB1 (UniProt P16278)
inactive: [1] -0.009 | nilotinib 0.013 | [2] 0.017 | dasatinib 0.061 | [3] 0.004 | [4] -0.006 | [5] 0.016 | tipifarnib 0.039 | mubritinib -0.009
active: bafetinib -0.418

GLRX2 isoform 2 (UniProt Q9NS18)
inactive: bafetinib -0.026 | [1] -0.015 | nilotinib 0.171 | [2] 0.046 | dasatinib 0.045 | [3] 0.061 | [4] -0.002 | [5] -0.044 | tipifarnib 0.032 | mubritinib 0.091

Going on with the list:

GPD1L (UniProt Q8N335)
inactive: bafetinib -0.044 | [1] 0.016 | nilotinib -0.171 | [2] -0.099 | dasatinib 0.025 | [3] -0.004 | [4] 0.11 | [5] -0.038 | tipifarnib 0.04 | mubritinib 0.112

GLUL (UniProt P15104)
inactive: bafetinib -0.027 | [1] -0.038 | nilotinib -0.061 | [2] 0.062 | dasatinib 0.015 | [3] -0.148 | [4] -0.035 | [5] -0.085 | tipifarnib 0.011 | mubritinib -0.112

GNA13 (UniProt Q14344)
inactive: bafetinib 0.036 | [1] -0.055 | nilotinib 0.03 | [2] -0.035 | dasatinib -0.047 | [3] 0.001 | [4] 0.033 | [5] -0.05 | tipifarnib -0.003 | mubritinib 0.007

GPATCH8 (UniProt Q9UKJ3)
inactive: bafetinib -0.032 | [1] -0.047 | nilotinib 0.005 | [2] -0.22 | dasatinib -0.045 | [3] 0.111 | [4] 0.019 | [5] -0.067 | tipifarnib 0.087 | mubritinib 0.044

GOLIM4 (UniProt F8W785)
inactive: bafetinib -0.082 | [1] 0.004 | nilotinib 0.074 | [2] -0.101 | dasatinib 0.092 | [3] 0.042 | [4] -0.016
